In doi:10.1101/451823:
Like-named read-outs stand apart in the source and are kept apart here. No constants are given. Whether binding was seen depends on the method and setting. In cells and extracts the contact can be indirect. Some results given as binding are weak or reduced against the parent protein; the word gives no strength.

By UniProt entry, the sequences of proteins in these tests, tags left out.
UniProt P17844: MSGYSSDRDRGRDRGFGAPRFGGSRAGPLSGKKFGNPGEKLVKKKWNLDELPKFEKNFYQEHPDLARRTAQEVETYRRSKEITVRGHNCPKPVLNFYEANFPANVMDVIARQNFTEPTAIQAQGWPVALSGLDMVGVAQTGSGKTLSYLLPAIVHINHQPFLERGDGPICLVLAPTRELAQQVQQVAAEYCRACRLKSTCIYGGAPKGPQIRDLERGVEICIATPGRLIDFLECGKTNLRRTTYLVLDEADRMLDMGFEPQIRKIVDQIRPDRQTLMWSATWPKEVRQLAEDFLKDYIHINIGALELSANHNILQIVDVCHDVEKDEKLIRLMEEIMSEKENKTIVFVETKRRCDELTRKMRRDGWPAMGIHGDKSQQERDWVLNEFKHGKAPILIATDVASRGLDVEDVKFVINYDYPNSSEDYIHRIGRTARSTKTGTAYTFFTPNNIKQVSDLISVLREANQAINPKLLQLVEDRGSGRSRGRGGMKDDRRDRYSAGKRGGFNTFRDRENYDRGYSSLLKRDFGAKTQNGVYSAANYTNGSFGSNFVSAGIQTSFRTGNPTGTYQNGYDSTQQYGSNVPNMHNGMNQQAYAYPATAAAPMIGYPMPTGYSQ
UniProt O14744: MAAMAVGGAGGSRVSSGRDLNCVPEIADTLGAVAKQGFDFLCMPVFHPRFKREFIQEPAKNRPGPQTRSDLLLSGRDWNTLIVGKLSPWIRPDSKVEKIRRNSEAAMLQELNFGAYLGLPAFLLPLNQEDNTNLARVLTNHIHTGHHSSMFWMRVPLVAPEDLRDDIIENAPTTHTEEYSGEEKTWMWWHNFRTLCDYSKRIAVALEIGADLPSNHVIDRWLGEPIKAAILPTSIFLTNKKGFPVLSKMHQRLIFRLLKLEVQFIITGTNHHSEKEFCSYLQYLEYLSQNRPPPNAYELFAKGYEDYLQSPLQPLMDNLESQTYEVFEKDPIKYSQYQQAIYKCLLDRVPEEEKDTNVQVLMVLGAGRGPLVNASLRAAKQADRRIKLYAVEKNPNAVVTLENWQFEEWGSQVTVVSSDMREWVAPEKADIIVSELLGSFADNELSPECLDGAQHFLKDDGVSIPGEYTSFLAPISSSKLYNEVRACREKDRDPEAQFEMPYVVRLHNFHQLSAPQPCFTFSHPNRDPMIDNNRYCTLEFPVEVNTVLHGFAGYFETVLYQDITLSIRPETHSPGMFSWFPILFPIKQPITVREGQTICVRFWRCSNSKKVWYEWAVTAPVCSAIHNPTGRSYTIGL

Tests used:
Assay in all cases: co-IP
[1] = target: DDX5 (human (endogenous in U2OS)) (UniProt P17844)
[2] = target: PRMT5 (human (endogenous in U2OS)) (UniProt O14744)
[3] = target: T1, XRN2 (human (endogenous in U2OS and HEK293)) (UniProt Q9H0D6)
T1 sequence: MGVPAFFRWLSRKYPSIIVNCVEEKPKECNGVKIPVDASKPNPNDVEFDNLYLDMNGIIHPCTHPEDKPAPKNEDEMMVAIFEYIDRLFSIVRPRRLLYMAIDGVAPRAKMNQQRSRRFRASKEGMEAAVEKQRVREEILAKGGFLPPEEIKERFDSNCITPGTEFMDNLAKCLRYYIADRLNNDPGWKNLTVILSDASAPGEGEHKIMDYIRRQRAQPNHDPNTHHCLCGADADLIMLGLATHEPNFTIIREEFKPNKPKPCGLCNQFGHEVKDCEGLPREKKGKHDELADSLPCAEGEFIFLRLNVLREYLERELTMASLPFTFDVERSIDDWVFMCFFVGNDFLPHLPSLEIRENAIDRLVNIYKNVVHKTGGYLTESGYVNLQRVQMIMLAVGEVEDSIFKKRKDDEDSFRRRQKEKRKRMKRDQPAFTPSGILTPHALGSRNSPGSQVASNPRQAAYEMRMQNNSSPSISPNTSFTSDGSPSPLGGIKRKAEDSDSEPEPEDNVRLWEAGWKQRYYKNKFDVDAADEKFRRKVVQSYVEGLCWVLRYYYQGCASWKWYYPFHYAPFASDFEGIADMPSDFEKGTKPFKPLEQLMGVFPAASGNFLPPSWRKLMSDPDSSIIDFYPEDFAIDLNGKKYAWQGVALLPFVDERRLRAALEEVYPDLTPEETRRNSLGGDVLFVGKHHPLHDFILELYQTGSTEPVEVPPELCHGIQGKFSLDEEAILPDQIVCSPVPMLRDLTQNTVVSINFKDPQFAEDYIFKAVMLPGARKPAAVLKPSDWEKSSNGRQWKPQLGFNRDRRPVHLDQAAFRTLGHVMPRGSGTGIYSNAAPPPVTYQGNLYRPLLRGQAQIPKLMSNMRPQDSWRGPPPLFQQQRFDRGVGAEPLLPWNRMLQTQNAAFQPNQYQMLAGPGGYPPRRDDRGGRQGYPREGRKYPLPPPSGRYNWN

Flag-DDX5 (human) [4] = target: Flag-DDX5 (human) (UniProt P17844)
Flag-DDX5 (human) [5] = target: Flag-DDX5 (human) (UniProt P17844); remark: listed apart in the source

PRMT5 (from UniProt O14744 1-637) (enzyme)
binding [1]: binds

DDX5 (from UniProt P17844 1-614)
binding [2]: binds
binding [3]: binds

B1: XRN2 (enzyme, UniProt Q9H0D6 1-950)
chain: T1 sequence
binding (Flag-DDX5 (human) [4]): binds
binding (Flag-DDX5 (human) [5]): binds
